Source: PubChem BioAssay AID1259275 (Sanger Institute, 2017)
In all, the deposit lists 794 reagents; below is a part drawn at random. 13 of them (1.6%) were called active. 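Calls mark knock-downs lethal by themselves, not drug synergy; drugs went in a day after transfection, with DMSO as vehicle.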 No viability above 1 is reported: the scale is capped. Not given: the amount of reagent, the time to read-out.

- Assay: 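Knock-downs that cut viability on their own or combined with BYL719, cetuximab or trametinib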 (primary screen)
- System: COLO320HSR human colorectal cancer cells
- Reagent: siRNA pool against human genes
- Conditions: anchor drug added one day after transfection: BYL719 at 1 µM, cetuximab at 5 µg/ml or trametinib at 10 nM; DMSO as vehicle arm
- Measured: 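Replicate-mean viability versus non-targeting pool control, robust z-score without drug, and per-drug synergy scores for BYL719 at 1 µM, cetuximab at 5 µg/ml and trametinib at 10 nM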
- Direction: robust z-score, siRNA alone: higher = more viable cells; strongly negative means essential; viability, knock-down alone (DMSO): higher = more viable cells; synergy score with BYL719 and synergy score with cetuximab and synergy score with trametinib: higher = stronger combined killing with drug
- Active means: 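a gene is called essential when its robust z-score without drug falls below -3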
- Calls: active = essential (siRNA alone); inactive = no change (siRNA alone)

no.	target	robust z-score, siRNA alone	viability, knock-down alone (DMSO) (fraction of control)	synergy score with BYL719	synergy score with cetuximab	synergy score with trametinib	outcome
1	PIK3C2G	0.726	1	-0.0328	-0.0215	-0.0259	inactive
2	MOK (MOK protein kinase)	-0.124	0.923	-0.15	-0.044	-0.0746	inactive
3	TP53 (tumor protein p53)	0.671	0.995	-0.051	-0.0939	-0.0308	inactive
4	CDK19 (cyclin dependent kinase 19)	0.454	0.975	-0.03	-0.0281	-0.0273	inactive
5	LIMK1 (LIM domain kinase 1)	0.254	0.957	-0.259	-0.128	-0.0675	inactive
6	CSF1R (colony stimulating factor 1 receptor)	-0.979	0.846	0.0837	-0.23	-0.0943	inactive
7	DLG3 (discs large MAGUK scaffold protein 3)	0.327	0.964	-0.144	-0.122	-0.0512	inactive
8	WHR1 (winged helix repair factor 1)	0.726	1	-0.0362	-0.0539	0.00285	inactive
9	AMER1 (APC membrane recruitment protein 1)	0.726	1	-0.123	-0.0508	-0.0259	inactive
10	DCLK3 (doublecortin like kinase 3)	0.55	0.984	-0.0662	-0.0583	-0.0414	inactive
11	HSPB8 (heat shock protein family B (small) member 8)	0.726	1	-0.114	-0.0893	-0.0259	inactive
12	IPMK (inositol polyphosphate multikinase)	-0.333	0.904	-0.132	-0.117	-0.0955	inactive
13	CAMK2A (calcium/calmodulin dependent protein kinase II alpha)	-0.0659	0.929	-0.163	-0.111	-0.0174	inactive
14	MAGI2	0.726	1	0.0863	0.0812	-0.0259	inactive
15	MAST4	0.726	1	-0.122	-0.0689	-0.0259	inactive
16	KRAS (KRas proto-oncogene, GTPase)	0.493	0.979	-0.131	-0.108	-0.0464	inactive
17	CASP8 (caspase 8)	0.726	1	-0.243	-0.0893	-0.0259	inactive
18	GNAS (GNAS complex locus)	0.726	1	-0.0141	-0.0689	-0.0259	inactive
19	MST1R (macrophage stimulating 1 receptor)	-1.64	0.786	-0.0899	-0.103	-0.152	inactive
20	NLK (nemo like kinase)	-1.15	0.831	-0.11	-0.107	-0.0457	inactive

Part of the list above in another layout:
GNAS (GNAS complex locus)
- robust z-score, siRNA alone: 0.726
- viability, knock-down alone (DMSO) (fraction of control): 1
- synergy score with BYL719: -0.0141
- synergy score with cetuximab: -0.0689
- synergy score with trametinib: -0.0259
- outcome: inactive

MST1R (macrophage stimulating 1 receptor)
- robust z-score, siRNA alone: -1.64
- viability, knock-down alone (DMSO) (fraction of control): 0.786
- synergy score with BYL719: -0.0899
- synergy score with cetuximab: -0.103
- synergy score with trametinib: -0.152
- outcome: inactive
